In publication PMC7736850, “Hemistepsin A suppresses colorectal cancer growth through inhibiting pyruvate dehydrogenase kinase activity” (Scientific Reports, 2020) one finds binding data, which are given here for one molecule.

Sequences of proteins named here, by UniProt entry; tags and fusion partners are left off. Residues count along the entry.
UniProt Q15118, residues 29-436: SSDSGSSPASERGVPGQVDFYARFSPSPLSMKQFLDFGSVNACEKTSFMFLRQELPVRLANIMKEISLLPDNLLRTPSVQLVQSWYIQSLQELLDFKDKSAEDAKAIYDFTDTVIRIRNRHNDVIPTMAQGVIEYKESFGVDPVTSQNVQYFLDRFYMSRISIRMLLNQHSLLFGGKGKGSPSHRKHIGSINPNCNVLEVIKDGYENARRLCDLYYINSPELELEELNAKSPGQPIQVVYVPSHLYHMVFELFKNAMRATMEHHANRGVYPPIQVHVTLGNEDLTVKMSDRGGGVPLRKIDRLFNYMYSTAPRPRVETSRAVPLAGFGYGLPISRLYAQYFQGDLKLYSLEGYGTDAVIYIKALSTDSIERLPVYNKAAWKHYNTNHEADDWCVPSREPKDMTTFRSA

Results are given in words; binding and its absence hold for the method and conditions named. Binding seen in cells or lysates may run through a third protein. Some binding calls cover weakened binding; strength is not graded here.

This test has as its target Glutathione S-transferase (GST) tagged-PDK1 (UniProt Q15118). As to the kind of experiment: pull-down; GST-PDK1 expressed in HEK 293T cells (treated with 0 or 10 μM HsA for 12 h), pulled down on Glutathione Sepharose 4B beads, washed with 20 mM potassium phosphate pH 7; PDH-E2 and PDHA1 detected by Western blot.

B1: E2 subunit of the pyruvate dehydrogenase complex (PDH-E2) (protein, UniProt P10515 87-647)
chain: SLPPHQKVPLPSLSPTMQAGTIARWEKKEGDKINEGDLIAEVETDKATVGFESLEECYMAKILVAEGTRDVPIGAIICITVGKPEDIEAFKNYTLDSSAAPTPQAAPAPTPAATASPPTPSAQAPGSSYPPHMQVLLPALSPTMTMGTVQRWEKKVGEKLSEGDLLAEIETDKATIGFEVQEEGYLAKILVPEGTRDVPLGTPLCIIVEKEADISAFADYRPTEVTDLKPQVPPPTPPPVAAVPPTPQPLAPTPSAPCPATPAGPKGRVFVSPLAKKLAVEKGIDLTQVKGTGPDGRITKKDIDSFVPSKVAPAPAAVVPPTGPGMAPVPTGVFTDIPISNIRRVIAQRLMQSKQTIPHYYLSIDVNMGEVLLVRKELNKILEGRSKISVNDFIIKASALACLKVPEANSSWMDTVIRQNHVVDVSVAVSTPAGLITPIVFNAHIKGVETIANDVVSLATKAREGKLQPHEFQGGTFTISNLGMFGIKNFSAIINPPQACILAIGASEDKLVPADNEKGFDVASMMSVTLSCDHRVVDGAVGAQWLAEFRKYLEKPITMLL
With B1, the binding result is reported as “binds”.
